Source: PubChem BioAssay AID1035470 (Broad Institute, 2014)
Fewer than 10 of roughly 1,800 compounds were called active. About 16% were inconclusive and are not listed.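 Rule for the calls: active = compound lowering the normal-ribosome reporter at least twice as much as the humanized-ribosome reporter, growth loss under a set limit; inconclusive = no clear call, values can overlap the other calls; inactive = the rest.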 Only a part is listed here, and it is no random draw. Measured potencies and affinities stand elsewhere.

assay: E. coli strain growth, wild-type against G2058 humanized RFP mutant – G2058 mutant RFP vs wild-type GFP, cherry-pick, two tests, dose response (AID 1035470); settings: E. coli WT-GFP vs G2058-humanized RFP, fluorescence, 24 h; at 50 µM (top of the series)

Activity change, negative = inhibition, inactive:
COC(=O)c1ccc(CCc2cc(O)c(Br)cc2O)cc1 -22.1, CSc1ccccc1NC(=O)CN(c1cccc(C)c1)S(C)(=O)=O -7.39, COc1ccc(C#Cc2ccc([C@@H]3[C@@H](CO)N4CCCCN(C(=O)Nc5ccc(F)cc5)C[C@H]34)cc2)cc1 -0.946, O=C(O)CNC(=O)C(c1ccccc1)c1ccccc1 -3.19, Cc1cccc(-c2nsc(SCC(=O)NCC3CCCO3)n2)c1 (centres undefined) -11.8, CN(C)S(=O)(=O)c1cccc(NC(=O)c2ccc3c(c2)S(=O)(=O)N=C2CCCCCN23)c1 -12.4, O=C(c1ccc(N2CCCCC2)c([N+](=O)[O-])c1)N1CCN(c2ccccn2)CC1 -14.6, COc1ccc2c(c1)-c1nc(N)sc1CC2 -4.08, O=C(CCNC(=O)c1ccco1)Nc1cccc(Br)c1 -16.9, Cc1cccc(Oc2ccc(NC(=O)c3ccccc3C(=O)O)cc2)c1 -7.08, Cc1ccc(CSCC(=O)Nc2ccccc2F)cc1 -15.3, O=C(c1cc(S(=O)(=O)N2CCOCC2)ccc1Cl)N1CCc2ccccc2C1 -17.2, Cc1n[nH]c(C)c1S(=O)(=O)N1CCCC(C(=O)Nc2ccc(Br)cc2)C1 (centres undefined) -2.32, Cc1ccc2c(N)c(C(=O)c3ccccc3)sc2n1 -23, COc1ccc(C2=NN(C(=O)c3cccnc3)C(c3ccccc3)C2)cc1 (centres undefined) -5.86, [O-][n+]1ccccc1/C=C/c1ccccc1 -16.5, COCC(C)NC(=O)c1nn(Cc2ccccc2)c(=O)c2ccccc12 (centres undefined) -8.39, Cc1cc(NC(=O)c2sc(Nc3ccc(F)c(Cl)c3)nc2N)no1 3.6, Cc1cc(C)nc(SCCC(=O)Nc2ccccc2Cl)n1 0.479, CC(CCc1ccccc1)NC(=O)CCC1CCCC1 (centres undefined) -1.78, CCn1c(NC(=O)c2nn(C)cc2Br)nc2ccccc21 -7.76, CN1CCSc2ccc(C(=O)Nc3cccc(F)c3)cc21 -9.02, COc1ccc(-c2cc(C(=O)O)nc3ccc4ccccc4c23)cc1OC -13, Cc1onc(-c2ccccc2Cl)c1C(=O)N1CCN(Cc2ccc3c(c2)OCO3)CC1 -9.95, CC(C)c1ccc(-c2nc3ccccc3s2)cc1 2.01, CC(NC(=O)c1ccncc1)c1ccc(Cl)cc1Cl (centres undefined) -2.79, COC(=O)c1cc(S(=O)(=O)NCc2ccc3c(c2)OCO3)cn1C -18.4, Cc1ccc(-c2nc(CN3CCCCC3c3cccc(F)c3)c(C)o2)o1 (centres undefined) -14, c1ccc2c(c1)Nc1cc3ccccc3cc1S2 0.57, Cc1nn(Cc2cccc(F)c2)c(C)c1NC(=O)c1c(Cl)cnn1C -0.197, Cc1ccc(NCC(=O)c2ccc(C)cc2)cc1 -6.49, COc1ccc(OC)c(NC(=O)COc2ccc(S(=O)(=O)NC(C)C)cc2)c1 -15.7, Cc1cc(C)c(OCCN(C)Cc2ccccc2)c(Br)c1 -12.5, COc1cccc(NC(=O)C(C)SCc2ccccc2)c1 (centres undefined) -14.7, Cc1ccc(S(=O)(=O)NCc2c(-c3ccccc3)noc2C)cc1 -15.8, Brc1ccc(Nc2ncnc3[nH]ncc23)cc1 -3.7, COc1ccc(CC(=O)Nc2cc(S(=O)(=O)Nc3ccc(OC)cc3)ccc2OC)cc1 -11.4, Fc1ccc(-c2nc3ccc(Cl)cn3c2Cc2cccc(Cl)c2)cc1 -18, O=C(Nc1cc(F)ccc1F)N1CCCCN2[C@@H](CO)[C@H](c3ccc(-c4ccncc4)cc3)[C@@H]2C1 -2.55, CC(=O)Nc1ccc(CNc2nc(NCCN(C)C)nc3cc(-c4ccccc4)sc23)cc1 -11.1, Cc1ccc(-c2c[n+](CC(=O)OCc3ccccc3)c3n2CCC3)cc1 -9.4, C#CCOc1nc(Nc2cccc([N+](=O)[O-])c2)nc(OCC#C)n1 -6.99, Cc1ccc(N2C(=S)NC3c4cc(Cl)ccc4OC2(C)C3C(=O)N(C)C)cc1 (centres undefined) -11.8, COc1ccc(C(=O)C[n+]2ccc3c(c2)nc(-c2cc(OC)c(OC)cc2OC)n3C)cc1 -22.3, Cc1cccc(-c2ccc([C@H]3[C@@H](CO)N4CCCCN(S(=O)(=O)c5ccccc5C)C[C@@H]34)cc2)c1 -4.73, COc1ccc(C(C)=O)cc1COc1ccc(Cl)c(C)c1 -10.3, COc1ccccc1NC(=O)N1CCCCN2[C@@H](CO)[C@H](c3ccc(C#Cc4ccccc4)cc3)[C@@H]2C1 -7.55, Fc1ccccc1C1CCN(Cc2nc(COc3ccccc3)no2)C1 (centres undefined) -0.998, Cc1ccccc1S(=O)(=O)c1cc2ccccc2nc1N -9.42, COc1ccccc1N1CCN(Cc2ccc(OC)c3ccccc23)CC1 -16.8, Cc1ccc(S(=O)(=O)N2CCCCC2C(=O)N2CCN(c3ccccc3F)CC2)cc1 (centres undefined) -17.8, Nc1ccccc1Nc1ccc([N+](=O)[O-])cc1[N+](=O)[O-] -12.1, Cc1cc(C(=O)Nc2ccc(Cl)cc2)c(C)n1Cc1cccs1 -8.25, Cc1c(Cc2ccccc2)sc(NC(=O)Cc2ccccc2)c1C(N)=O -0.013, COC(=O)CN1C(=S)N(c2ccc(F)cc2)C(=O)C1CC(=O)Nc1ccc(F)cc1 (centres undefined) -13.5, Cc1occc1-c1nnc(SCC(=O)Nc2nc(-c3ccccc3)cs2)o1 -16, O=S(=O)(Cc1ccco1)Cc1nc(-c2ccc(Cl)cc2)cs1 -9.02, CC1Cc2ccccc2N1C(=O)CN1C(=O)NC(C)(CCc2ccccc2)C1=O (centres undefined) -22.1, CCOC(=O)C1NN=C(C(=O)c2ccccc2)C1c1ccc(OC)cc1 (centres undefined) -4.52, O=C(COc1cccc2c1CCN(Cc1ccc(Br)cc1)C2=O)N1CCOCC1 -5.18, Cc1ccc(C(=O)Nc2cccc3[nH]c(C(F)(F)F)nc23)cc1 -14, Cc1nn(-c2ccc(N3CCCCC3)nn2)c(C)c1CCC(=O)Nc1ccc(F)cc1 -9.05, Cc1noc(C)c1NC(=O)Nc1ccc2c(c1)C(=O)N([C@@H](C)CO)C[C@H](C)[C@@H](CN(C)C(=O)Nc1ccc3c(c1)OCO3)OCCCC[C@H](C)O2 17.1, Cc1cc(C)n(CC(O)COc2ccc3ccccc3c2)n1 (centres undefined) -1.71, O=C(Nc1cc(S(=O)(=O)N2CCOCC2)ccc1N1CCOCC1)c1ccc([N+](=O)[O-])s1 -15.8, Cc1ccccc1CSc1nnc(-c2ccccn2)n1C -10.4, O=C(Nc1cccc(S(=O)(=O)c2cccc(NC(=O)C3CC3)c2)c1)C1CC1 -2.94, CC(C)OCCCNC(=O)c1ccc(CS(=O)(=O)c2cccc(C(F)(F)F)c2)o1 -6.78, Cc1ccc(C)c(N2CCN(C(=O)CCS(=O)(=O)c3ccc4c(c3)oc(=O)n4C)CC2)c1 -12.4, C[C@@H]1CN([C@@H](C)CO)C(=O)CCCn2nncc2CO[C@H]1CN(C)C(=O)Nc1cccc(C(F)(F)F)c1 -15.5, CC(NC(=O)c1c(N)[nH]c(C(=O)c2ccccc2)c1-c1ccccc1Br)c1cccc2ccccc12 (centres undefined) 1.52, COc1cc(OC)cc(-c2nc3ccccc3c(=O)n2OC(=O)c2ccc(C)c(C)c2)c1 3.7, Nc1nc(-c2cc(-c3ccccc3)no2)cs1 -8.67, COc1ccc(C#Cc2ccc([C@H]3[C@@H](CO)N4CCCCN(C(=O)Nc5cccc(F)c5)C[C@H]34)cc2)cc1 4.7, COc1cc(NC(=O)c2ccc(Cl)cc2)c(OC)cc1NC(=O)CN1CCCCC1 -7.91, COc1cccc(NC2=Nc3cccc4cccc2c34)c1 -20.4, CC1(CCC(=O)N2CCCC(N3CCN(c4ccc(F)cc4)CC3)C2)CC1 (centres undefined) -9.89, O=C(O)CC(CC(=O)Nc1ccc2ccccc2n1)c1ccccc1 (centres undefined) -5.06, CN(Cc1ccccc1NS(=O)(=O)c1ccc(Cl)cc1)C1CCCCC1 -10.1, CCn1c(SCC(=O)Nc2ccc(OC)cc2)nc2nc3c(cc2c1=O)CCCC3 -19, CCCOC(=O)c1ccc(NC(=O)c2nc3nc(C)cc(C)n3n2)cc1 -5.92, COc1cc2c(cc1OC)C1(C)N(CC2)C(C(C)=O)=NN1c1ccc(Cl)cc1 (centres undefined) -8.26, C[C@@H]1CCCCO[C@@H](CN(C)C)[C@@H](C)CN([C@H](C)CO)C(=O)c2cc(NC(=O)Nc3cccc4ccccc34)ccc2O1 25, C[C@@H]1CN([C@@H](C)CO)C(=O)c2cc(NS(=O)(=O)c3ccccc3)ccc2O[C@@H]1CN(C)Cc1ccc(C(=O)Nc2ccccc2N)cc1 -3.62, NS(=O)(=O)c1cc(C(=O)OCC(=O)Nc2ccccc2[N+](=O)[O-])ccc1Cl -3.46, COc1ccccc1-c1noc2ncnc(Nc3cccc(C)c3C)c12 -17.8, Cc1cc(Br)cn2c(Cc3cccc(Cl)c3)c(-c3ccco3)nc12 -8.14, CN(C)c1ccc(-c2nnn(CC(=O)Nc3ccccc3N3CCOCC3)n2)cc1 -13, CC1CCCC(NC(=O)COC(=O)[C@@H]2CC(O)CN2S(=O)(=O)c2ccc3c(c2)OCCO3)C1C (some centres undefined) 1.72
